Our source for the binding values is patent US20100099601A1.

Protein sequences, listed by entry. Tags and fused reporters are not part of them. Residues count along the entry.
UniProt P08069, residues 31-1367: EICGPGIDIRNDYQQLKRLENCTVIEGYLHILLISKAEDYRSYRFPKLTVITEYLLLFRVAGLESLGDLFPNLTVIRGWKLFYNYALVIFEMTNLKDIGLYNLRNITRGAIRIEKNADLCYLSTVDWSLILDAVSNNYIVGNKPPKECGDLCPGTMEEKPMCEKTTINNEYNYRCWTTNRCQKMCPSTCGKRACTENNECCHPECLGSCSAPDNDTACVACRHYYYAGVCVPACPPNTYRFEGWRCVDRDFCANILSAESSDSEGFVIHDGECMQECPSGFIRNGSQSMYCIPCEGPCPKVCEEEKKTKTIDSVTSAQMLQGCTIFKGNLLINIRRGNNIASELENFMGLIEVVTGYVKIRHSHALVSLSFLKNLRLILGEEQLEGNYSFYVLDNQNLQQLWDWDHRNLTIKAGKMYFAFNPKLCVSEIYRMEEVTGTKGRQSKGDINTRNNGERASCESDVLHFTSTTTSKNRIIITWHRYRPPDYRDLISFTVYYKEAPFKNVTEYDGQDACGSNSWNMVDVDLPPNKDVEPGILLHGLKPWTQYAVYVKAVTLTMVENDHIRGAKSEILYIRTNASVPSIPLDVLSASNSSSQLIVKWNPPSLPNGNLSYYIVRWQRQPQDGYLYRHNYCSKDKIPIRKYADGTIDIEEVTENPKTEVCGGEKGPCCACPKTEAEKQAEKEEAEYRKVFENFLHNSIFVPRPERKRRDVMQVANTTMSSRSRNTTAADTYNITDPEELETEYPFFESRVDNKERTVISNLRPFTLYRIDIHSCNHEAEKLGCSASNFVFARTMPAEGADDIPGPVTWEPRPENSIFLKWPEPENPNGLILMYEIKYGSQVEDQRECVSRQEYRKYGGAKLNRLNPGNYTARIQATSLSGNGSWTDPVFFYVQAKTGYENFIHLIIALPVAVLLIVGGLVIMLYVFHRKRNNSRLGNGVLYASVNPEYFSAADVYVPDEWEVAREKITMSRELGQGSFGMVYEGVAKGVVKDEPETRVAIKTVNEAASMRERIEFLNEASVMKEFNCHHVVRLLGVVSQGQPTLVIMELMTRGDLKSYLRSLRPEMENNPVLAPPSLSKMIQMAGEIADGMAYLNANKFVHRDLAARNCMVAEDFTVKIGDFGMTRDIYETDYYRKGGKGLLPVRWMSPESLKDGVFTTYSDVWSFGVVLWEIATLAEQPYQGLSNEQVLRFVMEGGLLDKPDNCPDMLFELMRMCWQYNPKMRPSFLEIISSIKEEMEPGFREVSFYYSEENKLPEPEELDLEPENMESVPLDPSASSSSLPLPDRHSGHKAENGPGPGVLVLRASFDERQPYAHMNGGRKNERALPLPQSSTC

Assay [1] deals with Insulin-like Growth Factor Receptor (IGFR; Type I IGF receptor) (UniProt P08069). Description: IGFR competitive binding.
Assay [2] has the same target. Description: displacement of 125I-IGF-1 from IGFR. (In general: Loss of bound radioactivity is the signal in a displacement assay; it reports binding, not function.)

Results are given in words; binding and its absence hold for the method and conditions named. Some binding calls cover weakened binding; strength is not graded here.

In the case of “57mer single-chain insulin analogue (His^A8, Asp^B10, Asp^B28, Pro^B29; linker GGGPRR) (from UniProt P30407 25-110) (ligand)”, in assay [1], the binding entry was “binds”.
Regarding “single chain insulin (SCI) wild type at position B10 (His^A8, Asp^B28, Pro^B29) (from UniProt P30407 25-110) (ligand)”, in assay [2], the binding entry is listed as “binds”.
